According to US6992215B2, “Thiol-based NAALADase inhibitors” (Guildford Pharmaceuticals Inc., priority 2001, dated 2006):

Tested on: chronic constrictive injury-induced rats
Assay: Neuropathic pain in CCI model (sciatic nerve ligation, thermal hyperalgesia)
Type: in vivo
Experimental: Sciatic nerve ligation, consisting of 4 ligatures tied loosely around the sciatic nerve at 1 mm intervals proximal to the nerve trifurcation, was performed on rats. […] The rats were habituated to a Hargreaves apparatus. An infrared heat source was directed onto the dorsal surface of each rat's hindpaws and the time taken for the rat to withdraw its paws was noted. The difference in scores between the latency of the response for the paw on the operated side versus the paw on the unoperated control side was determined.
The rats were treated with either Compound 49 (10, 1 or 0.1 mg/kg) or a vehicle for 15 days after sciatic nerve ligation. Thermal pain responses were measured at days 0, 1, 5, 8, 11 and 15. The differences in scores for the rats treated with a vehicle and the rats treated with Compound 49 are graphically presented in FIGS. 13-15.
The rats were treated with either Compound 5 (50, 30, 10, 3, 1 or 0.3 mg/kg) or a vehicle for 12 (or 15) days after sciatic nerve ligation. Thermal pain responses were measured at days 0, 1, 5, 8 and 12 (and 15). The differences in scores for the rats treated with a vehicle and the rats treated with Compound 5 are graphically presented in FIGS. 17-22.
The rats received either Compound C (50 mg/kg i.p. daily) or a vehicle starting 10 days post surgery. […] Normal (unoperated) rats had approximately equal latencies for both paws. […]

## O=C(O)c1cccc(CC(CCCS)C(=O)O)c1 (stereo not drawn) [Compound 5, 3-carboxy-alpha-(3-mercaptopropyl)-benzenepropanoic acid]
10, 30 or 50 mg/kg, FIG. 23
  withdrawal latency on the unoperated (sham) side: approximately equal withdrawal latencies

## CC(C)(C)c1cc(CC(CCCS)C(=O)O)cc(C(=O)O)c1 (stereo not drawn) [Compound 49, 3-carboxy-5-(1,1-dimethylethyl)-alpha-(3-mercaptopropyl)-benzenepropanoic acid]
10, 1 or 0.1 mg/kg, FIG. 16
  withdrawal latency on the unoperated (sham) side: approximately equal withdrawal latencies
